PubChem BioAssay AID540276 (National Center for Advancing Translational Sciences (NCATS), 2011)
In all, about 300,000 compounds went through this assay and about 5,400 (1.8%) were called active. Inconclusive results, whose numbers are uncertain, are shown with a selection of clear calls. Calls follow the shape of the full dose curve; tested in HEK293 cells. Potencies beside an inconclusive call are fits to weak or partial responses and may not hold up. Residues, ends and D or L forms follow the SMILES beside them.

test: qHTS for inhibitors of binding or entry into cells for Marburg Virus; conditions: Marburg virus pseudotyped entry inhibition, cell reporter; series mostly up to 37.8 µM
Potency is read from the fitted curve at half-maximal effect.

Row | SMILES | Potency
1 | CCn1c(=O)c(-c2ccccc2)c(O)c2ccccc21 | inactive
2 | COc1cc(C(=O)NCC(=O)NCCN2C(=O)S/C(=C\c3ccccc3Cl)C2=O)cc(OC)c1OC | inconclusive: 1.26 µM [inhibitor, partial curve, poor fit]
4 | COc1ccc(C(=O)Nc2cc(S(=O)(=O)N3CCCC3)ccc2Cl)cc1 | inconclusive: 5.01 µM [inhibitor, partial curve, poor fit]
5 | C=CCCCCc1nc2ccccc2c(=O)n1N | inactive
6 | Cc1ccc(NC(=O)C2CCCN(c3nnc(-n4c(C)ccc4C)s3)C2)cc1Cl (stereo not given) | inactive
7 | CC(C)NC(=O)C1CC=CCC1C(=O)O (stereo not given) | inconclusive: 1.41 µM [activator, partial curve, poor fit]
8 | Cc1cc(C(=O)OCC(=O)N2CCN(C(=O)c3ccco3)CC2)c(C)n1-c1ccc(F)cc1 | inactive
9 | Cc1cccc(N2CCc3c2nc2ccccc2c3N)c1 | inconclusive: 14.1 µM [inhibitor, single point]
10 | Cn1c(CN2CCCCC2)nc2cc(NS(=O)(=O)c3ccc(F)cc3)ccc21 | inconclusive: 8.91 µM [inhibitor, partial curve, poor fit]
11 | CCCc1cc(=O)n2[nH]c(-c3ccc(C)cc3)nc2n1 | inconclusive: 7.08 µM [activator, partial curve, poor fit]
12 | NC(=O)c1c(NC(=O)CSc2nnc(Cc3ccccc3)n2Cc2ccco2)sc2c1CCC2 | inactive
13 | O=C(NC1(C(F)(F)F)C(=O)Nc2c1c(=O)[nH]c(=O)n2-c1ccccc1)c1cccnc1 (stereo not given) | inconclusive: 1.03 µM [activator, single point]
14 | Cc1onc(-c2ccccc2)c1C(=O)NC(=S)NNC(=O)c1ccncc1 | inactive
15 | Cc1ccc(C)c(-c2nc3cc(N)ccc3o2)c1 | inactive
16 | CCOC(=O)c1ccc(NC(=O)c2cc(=O)c3cc(CC)ccc3o2)cc1 | inconclusive: 5.62 µM [activator, single point]
17 | COC(=O)c1cc2sc(Cl)cc2n1CC(=O)NCCC(C)C | inconclusive: 6.51 µM [activator, partial curve, poor fit]
18 | Cc1ccc(-c2cc(C(F)(F)F)n3nc(C(=O)Nc4c(C)n(C)n(-c5ccccc5)c4=O)cc3n2)cc1 | inconclusive: 35.5 µM [inhibitor, single point]
19 | O=C(CCC(=O)Nc1ccc(F)cc1)N/N=C/c1ccc(O)cc1O | inconclusive: 20 µM [inhibitor, single point]
20 | COC(=O)C1=C(C)N=C2S[C@H](C)C(=O)N2[C@@H]1/C=C\c1ccccc1OC | inactive
21 | CCc1ccc(NC(=O)N(Cc2ccc(C)cc2)Cc2cccn2-c2nnc(N3CCCC3=O)s2)cc1 | inconclusive: 7.08 µM [inhibitor, full curve, poor fit]
22 | CS(=O)(=O)c1nc(-c2cccs2)cc(C(F)(F)F)n1 | inactive
23 | CCOC(=O)c1cc(NC(=O)c2cccnc2)cc(C(=O)OCC)c1 | inconclusive: 32.6 µM [inhibitor, partial curve, poor fit]
24 | Cc1ccccc1NC(=O)CN1C(=S)NC(C)(C)CC1C (stereo not given) | inconclusive: 3.98 µM [inhibitor, partial curve, poor fit]

Given tab-delimited: entries from further up
Row	SMILES	Potency
12	NC(=O)c1c(NC(=O)CSc2nnc(Cc3ccccc3)n2Cc2ccco2)sc2c1CCC2	inactive
13	O=C(NC1(C(F)(F)F)C(=O)Nc2c1c(=O)[nH]c(=O)n2-c1ccccc1)c1cccnc1 (stereo not given)	inconclusive: 1.03 µM [activator, single point]
14	Cc1onc(-c2ccccc2)c1C(=O)NC(=S)NNC(=O)c1ccncc1	inactive
15	Cc1ccc(C)c(-c2nc3cc(N)ccc3o2)c1	inactive

A draw from above in order of SMILES length, high to low.
Row | SMILES | Potency
2 | COc1cc(C(=O)NCC(=O)NCCN2C(=O)S/C(=C\c3ccccc3Cl)C2=O)cc(OC)c1OC | inconclusive: 1.26 µM [inhibitor, partial curve, poor fit]
8 | Cc1cc(C(=O)OCC(=O)N2CCN(C(=O)c3ccco3)CC2)c(C)n1-c1ccc(F)cc1 | inactive
15 | Cc1ccc(C)c(-c2nc3cc(N)ccc3o2)c1 | inactive

Next structures.

Row | SMILES | Potency
25 | CCOc1ccccc1N1CCN(C(=O)CN2C(=O)NC3(CCCC3)C2=O)CC1 | inconclusive: 35.5 µM [activator, single point]
26 | CCN1C(=O)C(CC(=O)Nc2c(C)cccc2C)Nc2cc(S(=O)(=O)N(C)C)ccc21 (stereo not given) | inactive
27 | Cn1c(SCC(=O)N2CCCCCC2)nnc1-c1ccco1 | inconclusive: 35.5 µM [activator, single point]
28 | COC(=O)CCCC(=O)NC(C)c1cnn(-c2ccccc2C)c1C (stereo not given) | inactive
29 | CCOC(=O)C(C(=O)OCC)N(C#N)c1nc(OC)nc(N(C)C)n1 | inconclusive: 12.6 µM [inhibitor, partial curve, poor fit]
30 | CNCc1ccccc1OCc1ccc(F)cc1 | inconclusive: 15.8 µM [inhibitor, single point]
31 | NC(=S)NCCCC(N)C(=O)O (stereo not given) | inconclusive: 2.51 µM [inhibitor, full curve, poor fit]
32 | CCc1ccc(NC(=O)CN2C(=O)C(c3ccccc3)=NC23CCCCCC3)cc1 | inactive
33 | COc1cc(OC)cc(C(=O)N[C@H](C(=O)Nc2nnc(C3CC3)s2)C(C)C)c1 | inconclusive: 17.8 µM [inhibitor, single point]
34 | O=C(N/N=C/c1c(Cl)[nH]c2ccccc12)c1ccc2c(c1)OCCO2 | inconclusive: 3.16 µM [inhibitor, single point]
35 | COC(=O)c1cn(NC(=O)Cc2cccc(C(F)(F)F)c2)c(=O)c2ccccc12 | inconclusive: 1.12 µM [inhibitor, single point]
36 | O=c1nc(N/N=C/c2ccco2)cn[nH]1 | inconclusive: 1.78 µM [inhibitor, single point]
37 | C=CCn1c(=N)n(CC(=O)c2ccc(OC)cc2)c2ccccc21 | inconclusive: 15.8 µM [inhibitor, partial curve, poor fit]
38 | COc1ccc(NC(=O)CCn2nnc(-c3ccc(C)cc3)n2)cc1OC | inactive
39 | Cc1cc(C(=O)NNC(=S)NC(=O)/C=C/c2ccccc2Cl)n[nH]1 | inconclusive: 23.1 µM [activator, single point]
40 | CC(=O)NC(CC(C)C)C(=O)NC(Cc1ccccc1)C(N)=O (stereo not drawn) (Ac-Leu-Phe-NH2; configuration not given here) | inconclusive: 1.16 µM [activator, full curve, poor fit]
41 | COc1ccc(C(C(=O)NC(C)(C)C)N(CCc2ccccc2)C(=O)CCC(=O)Nc2cc(C)on2)cc1 (stereo not given) | active: 8.91 µM
42 | CCOc1ccc2c(c1)sc(N)[n+]2Cc1cc(C)cc2cccnc12 | inconclusive: 12.6 µM [inhibitor, partial curve, poor fit]
43 | O=C1OC(NCc2cccnc2)(c2ccc(Cl)cc2)c2ccccc21 (stereo not given) | inconclusive: 7.94 µM [inhibitor, partial curve, poor fit]
44 | NC(=O)CN1CCN(c2nc(-c3ccc(F)cc3)cs2)CC1 | inactive
45 | O=C(CCn1nnc2ccccc2c1=O)NCC1CCC(C(=O)O)CC1 (stereo not given) | inactive
46 | CN1CCN(c2cccc3c2C(=O)c2ccccc2C3=O)CC1 | inactive
47 | Cc1nc2c(c(C)nn2-c2ccccc2)c(C)c1C | inconclusive: 3.16 µM [inhibitor, single point]
48 | Cc1cccc(C(=O)OCCN2CCOCC2)c1 | inactive

Row | SMILES | Potency
49 | CCN(CC)CCN1C(=O)C(=O)/C(=C(/O)c2ccc(OC(C)C)cc2)C1c1ccncc1 (stereo not given) | inconclusive: 1.26 µM [inhibitor, single point]
50 | O=C1NC(=O)/C(=C\c2cn(Cc3ccccc3F)c3ccccc23)N1 | inconclusive: 6.31 µM [inhibitor, partial curve]
51 | Cc1cnc(NC(=O)c2ccncc2)s1 | inactive
52 | CCOC(=O)CNC(=O)CSc1nc2cccnc2n1Cc1ccccc1 | inconclusive: 7.94 µM [inhibitor, partial curve, poor fit]
53 | CCOc1cc(C(=O)OCC(=O)Nc2cc(C)on2)cc(OCC)c1OCC | inconclusive: 0.0046 µM [inhibitor, full curve, poor fit]
54 | COc1cc2c(cc1OC)[C@@H]1O[C@](c3ccsc3)(C2)Oc2c1c(=O)oc1ccc(F)cc21 | inactive
55 | CCOC(=O)c1nnn2c1nc(Nc1cccc(C(F)(F)F)c1)c1ccccc12 | inconclusive: 3.55 µM [activator, single point]
56 | CN(C)C(=O)c1ccc(NC(=O)c2cccnc2)cc1 | inactive
57 | COc1ccc(C(CNC(=O)Cc2ccc(Cl)c(Cl)c2)N2CCCCC2)cc1 (stereo not given) | inconclusive: 35.5 µM [inhibitor, single point]
58 | COc1ccccc1NC(=O)Nc1nc(-c2cccnc2)nc2ccccc12 | active: 7.08 µM
59 | CC(C)(C)NC(=O)c1cccc(NC(=O)CSc2ccc(Cl)cc2)c1 | inconclusive: 0.112 µM [activator, full curve, poor fit]
60 | COC(=O)c1ccccc1NC1CC(=O)N(c2c(C)cccc2C)C1=O (stereo not given) | inactive
61 | Cc1cccc(N2CC(O)(c3cccs3)[N+]3=C2CCCC3)c1 (stereo not given) | inactive
62 | O=C(Cc1ccccc1)Nc1ccc(NC(=O)c2cccs2)c(Cl)c1 | inconclusive: 5.01 µM [activator, single point]
63 | CC(C)Cc1nc(N2CCN(C(=O)c3ccccc3)CC2)c(C#N)c2c1CCC2 | inconclusive: 25.9 µM [inhibitor, partial curve, poor fit]
64 | CCN(CC)c1ccc(/C=C(\C#N)C(=O)NCc2ccccc2)cc1 | inactive
65 | COC(=O)c1cc(OC)c(OC)cc1NC(=S)N1CCCC1 | inconclusive: 5.62 µM [activator, single point]
66 | Cc1cccc(-n2ccnc2SCC(=O)Nc2cccc(S(=O)(=O)NC3=NCCC3)c2)c1C | inactive
67 | C#CCOCCOCCOCCNc1nc(N2CCN(C(=O)Cn3cc(CCO)nn3)CC2)nc(N2CCN(C(=O)[C@H]([C@@H](C)O)n3cc(CCCCN)nn3)CC2)n1 | inactive
68 | O=C(COC(=O)c1ccco1)c1ccc(F)cc1 | inactive
69 | COC(=O)c1cc2oc(C)cc2n1CC(=O)Nc1ccc(C)cc1C | inconclusive: 25.1 µM [inhibitor, single point]
70 | O=C(NNC1=Nc2cccc3cccc1c23)c1ccccc1Br | inconclusive: 15.8 µM [inhibitor, single point]
